Experimental data taken from publication PMC7349614.
No constants are given. Whether binding was seen depends on the method and setting. Binding seen in cells or lysates may run through a third protein. Some entries that bind do so weakly or less than the wild type.

Protein sequences, listed by entry. Tags and fused reporters are not part of them. Residues count along the entry.
UniProt Q15465, residues 24-462: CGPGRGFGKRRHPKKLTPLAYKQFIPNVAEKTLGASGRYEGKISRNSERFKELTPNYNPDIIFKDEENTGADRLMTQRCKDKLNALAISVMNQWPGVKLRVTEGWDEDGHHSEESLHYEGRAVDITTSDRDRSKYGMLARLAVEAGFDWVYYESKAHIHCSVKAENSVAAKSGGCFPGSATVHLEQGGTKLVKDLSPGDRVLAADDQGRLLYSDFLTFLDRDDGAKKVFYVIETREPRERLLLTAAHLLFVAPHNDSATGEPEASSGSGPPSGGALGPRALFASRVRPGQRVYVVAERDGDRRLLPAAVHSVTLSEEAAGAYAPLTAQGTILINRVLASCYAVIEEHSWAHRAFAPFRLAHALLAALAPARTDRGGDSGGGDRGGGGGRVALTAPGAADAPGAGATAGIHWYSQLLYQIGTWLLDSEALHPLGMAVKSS
UniProt Q9Y3R4: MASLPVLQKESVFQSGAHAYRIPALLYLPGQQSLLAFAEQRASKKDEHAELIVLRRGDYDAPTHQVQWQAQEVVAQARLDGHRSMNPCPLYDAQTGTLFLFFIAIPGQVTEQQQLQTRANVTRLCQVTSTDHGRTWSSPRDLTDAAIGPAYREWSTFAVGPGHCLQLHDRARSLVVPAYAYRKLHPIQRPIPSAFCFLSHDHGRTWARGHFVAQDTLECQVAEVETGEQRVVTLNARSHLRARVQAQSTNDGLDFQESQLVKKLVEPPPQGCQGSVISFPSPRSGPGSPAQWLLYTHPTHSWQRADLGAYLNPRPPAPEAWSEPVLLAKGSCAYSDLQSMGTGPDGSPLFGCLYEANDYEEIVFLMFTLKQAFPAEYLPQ

Target: Sonic hedgehog (Shh), sialylated, endogenous in pancreatic cancer sphere-forming cells (human (endogenous in MIAPaCa2 and AsPC1)) (UniProt Q15465)
Experiment: co-IP; lysate (200 μg) of Neu2-overexpressed PCS (N-PCS; also Rictor + Neu2 co-overexpressed) from MIAPaCa2 and AsPC1; anti-Shh or anti-Patched1 antibody (1:100) overnight at 4 °C, protein A-Sepharose 4B 3 h, washed with PBS, blot with anti-Neu2, anti-Patched1 and anti-Shh

binding: binds
Substance: Neu2 (cytosolic sialidase), overexpressed from PcDNA3.1-Neu2 (from UniProt Q9Y3R4 1-380) (enzyme)
